The comparison behind a weaker result is the experiment's own reference, which may not be listed here.
Target: STAT-1alpha W37A (Tyr-phosphorylated) (Homo sapiens) (UniProt P42224)
Experiment: EMSA
Conditions: binds as dimer, very little 2x(dimer) complex; completely displaced by unlabelled oligo; same buffer; purified recombinant protein; protein details: C-terminal 6xHis, baculovirus insect cells

Sequences of proteins named here, by UniProt entry; tags and fusion partners are left off. Residues count along the entry.
UniProt P42224, 2-750 W37A: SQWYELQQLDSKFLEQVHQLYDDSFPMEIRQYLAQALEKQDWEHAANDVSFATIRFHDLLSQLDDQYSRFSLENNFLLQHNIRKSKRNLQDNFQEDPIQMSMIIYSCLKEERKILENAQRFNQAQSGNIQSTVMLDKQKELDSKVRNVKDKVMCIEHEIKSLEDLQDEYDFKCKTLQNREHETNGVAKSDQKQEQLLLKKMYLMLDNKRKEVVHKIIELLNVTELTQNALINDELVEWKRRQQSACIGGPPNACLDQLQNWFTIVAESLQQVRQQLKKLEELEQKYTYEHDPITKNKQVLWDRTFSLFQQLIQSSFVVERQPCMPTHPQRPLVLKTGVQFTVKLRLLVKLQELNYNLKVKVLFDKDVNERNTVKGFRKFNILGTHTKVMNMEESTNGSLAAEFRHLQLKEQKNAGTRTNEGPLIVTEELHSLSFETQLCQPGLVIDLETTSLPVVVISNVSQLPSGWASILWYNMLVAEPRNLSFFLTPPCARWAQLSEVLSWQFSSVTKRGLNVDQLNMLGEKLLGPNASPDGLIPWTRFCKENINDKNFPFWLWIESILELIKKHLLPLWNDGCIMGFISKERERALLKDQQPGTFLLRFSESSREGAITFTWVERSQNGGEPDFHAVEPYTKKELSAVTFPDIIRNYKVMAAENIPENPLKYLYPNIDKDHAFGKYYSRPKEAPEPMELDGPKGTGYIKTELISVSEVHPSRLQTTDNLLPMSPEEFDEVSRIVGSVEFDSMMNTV

“GCCAGTCAGTTCCCGTCAATGCATCAGGTTCCCGTCAATGCAT (double strand) [tandem c-fos STAT element, 10 bp spacing]”: binds more weakly.

From US20030003563
